Experimental data from PMC5640807.
Results are given in words; binding and its absence hold for the method and conditions named. Binding seen in cells or lysates may run through a third protein. Some binding calls cover weakened binding; strength is not graded here. Tags and fused reporters may be left off the sequences shown. Blank lines part the entries; values can stand above or below the binder they belong to.

Amino acid sequences for entries named in this document (tags omitted). Residues count along the entry.
UniProt P63080, residues 26-473: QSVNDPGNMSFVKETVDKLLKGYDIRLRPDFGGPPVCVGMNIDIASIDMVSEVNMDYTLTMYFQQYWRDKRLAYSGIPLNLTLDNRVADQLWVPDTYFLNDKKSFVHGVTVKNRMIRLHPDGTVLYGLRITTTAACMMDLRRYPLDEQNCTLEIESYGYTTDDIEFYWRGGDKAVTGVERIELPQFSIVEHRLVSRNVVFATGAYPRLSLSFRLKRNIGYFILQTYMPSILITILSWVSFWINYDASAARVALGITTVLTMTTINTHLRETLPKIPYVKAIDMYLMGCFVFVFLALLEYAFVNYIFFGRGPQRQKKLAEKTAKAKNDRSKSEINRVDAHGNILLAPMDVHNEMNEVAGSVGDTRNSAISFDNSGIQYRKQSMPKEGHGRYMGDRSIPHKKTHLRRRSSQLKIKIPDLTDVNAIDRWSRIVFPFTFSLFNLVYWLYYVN
UniProt Q69ZK9, residues 15-836: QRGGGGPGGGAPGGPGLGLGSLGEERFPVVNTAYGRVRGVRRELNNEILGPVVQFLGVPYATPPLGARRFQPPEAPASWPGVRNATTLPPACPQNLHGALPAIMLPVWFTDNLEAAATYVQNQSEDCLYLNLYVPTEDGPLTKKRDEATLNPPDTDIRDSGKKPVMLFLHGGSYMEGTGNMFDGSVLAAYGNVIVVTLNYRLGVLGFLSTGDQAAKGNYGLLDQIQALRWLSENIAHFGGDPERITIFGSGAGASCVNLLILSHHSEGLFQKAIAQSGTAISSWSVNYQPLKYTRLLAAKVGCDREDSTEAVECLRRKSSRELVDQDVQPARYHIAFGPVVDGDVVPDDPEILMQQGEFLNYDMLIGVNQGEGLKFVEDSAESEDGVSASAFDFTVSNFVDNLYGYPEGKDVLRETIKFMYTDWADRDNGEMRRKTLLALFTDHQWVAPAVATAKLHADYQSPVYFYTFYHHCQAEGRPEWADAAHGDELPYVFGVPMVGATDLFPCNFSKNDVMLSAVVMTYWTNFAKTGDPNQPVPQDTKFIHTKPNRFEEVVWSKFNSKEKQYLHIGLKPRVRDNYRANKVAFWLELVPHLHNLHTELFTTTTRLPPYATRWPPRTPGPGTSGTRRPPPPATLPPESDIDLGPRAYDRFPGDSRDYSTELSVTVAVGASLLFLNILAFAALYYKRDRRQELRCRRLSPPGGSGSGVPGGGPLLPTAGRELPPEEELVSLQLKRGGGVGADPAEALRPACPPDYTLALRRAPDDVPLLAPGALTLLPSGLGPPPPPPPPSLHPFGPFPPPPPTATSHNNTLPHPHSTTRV

How the values were obtained:
[1] = molecular target: T1, LHFPL4 (Lipoma HMGIC Fusion Partner-Like 4), endogenous in mouse brain (mouse (endogenous in mouse brain)) (UniProt Q5U4E0); assay: co-IP; WT and Lhfpl4-/- mouse brain lysates; immunoprecipitation with an anti-LHFPL4 antibody; western blot
T1 sequence: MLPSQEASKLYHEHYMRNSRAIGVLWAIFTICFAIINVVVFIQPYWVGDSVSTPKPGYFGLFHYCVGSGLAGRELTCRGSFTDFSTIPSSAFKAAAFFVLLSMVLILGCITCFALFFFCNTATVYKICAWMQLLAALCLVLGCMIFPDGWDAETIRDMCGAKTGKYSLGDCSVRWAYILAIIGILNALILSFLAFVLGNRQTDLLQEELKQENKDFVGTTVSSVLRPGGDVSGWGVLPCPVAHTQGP

[2] = molecular target: T2, super-ecliptic-pHluorin (SEP)-tagged GABAA receptor gamma2 subunit (UniProt P22723); assay: co-IP; lysates of co-transfected COS-7 cells; mouse LHFPL4-tGFP co-immunoprecipitated with SEP-tagged GABAAR subunits; western blot
T2 sequence: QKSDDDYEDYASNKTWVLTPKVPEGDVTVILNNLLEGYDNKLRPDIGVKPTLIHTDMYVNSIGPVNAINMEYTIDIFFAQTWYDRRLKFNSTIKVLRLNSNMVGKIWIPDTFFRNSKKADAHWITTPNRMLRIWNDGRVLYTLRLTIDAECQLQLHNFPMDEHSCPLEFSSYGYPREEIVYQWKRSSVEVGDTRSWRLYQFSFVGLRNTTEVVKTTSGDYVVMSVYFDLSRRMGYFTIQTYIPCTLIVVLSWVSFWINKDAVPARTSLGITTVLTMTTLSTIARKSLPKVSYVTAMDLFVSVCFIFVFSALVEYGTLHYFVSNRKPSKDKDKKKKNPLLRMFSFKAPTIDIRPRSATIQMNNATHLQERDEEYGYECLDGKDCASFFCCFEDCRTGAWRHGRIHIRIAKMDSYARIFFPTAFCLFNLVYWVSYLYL

[3] = molecular target: T3, super-ecliptic-pHluorin (SEP)-tagged GABAA receptor alpha2 subunit (UniProt P26048); assay: as above
T3 sequence: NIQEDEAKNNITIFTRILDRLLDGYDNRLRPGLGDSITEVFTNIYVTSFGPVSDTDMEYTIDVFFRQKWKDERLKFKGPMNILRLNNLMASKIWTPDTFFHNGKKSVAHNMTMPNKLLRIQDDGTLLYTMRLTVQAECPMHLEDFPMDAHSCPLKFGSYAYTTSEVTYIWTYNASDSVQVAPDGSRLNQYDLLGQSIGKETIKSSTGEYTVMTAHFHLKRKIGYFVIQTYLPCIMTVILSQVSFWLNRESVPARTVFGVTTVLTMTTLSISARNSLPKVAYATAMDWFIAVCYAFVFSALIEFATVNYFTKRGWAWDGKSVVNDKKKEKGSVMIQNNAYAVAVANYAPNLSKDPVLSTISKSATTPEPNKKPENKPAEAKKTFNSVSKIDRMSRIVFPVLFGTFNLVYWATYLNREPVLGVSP

[4] = molecular target: super-ecliptic-pHluorin (SEP)-tagged GABAA receptor beta3 subunit (UniProt P63080); assay: as above
[5] = molecular target: neuroligin2, endogenous in mouse brain (mouse (endogenous in mouse brain)) (UniProt Q69ZK9); assay: co-IP; WT and Lhfpl4-/- mouse brain lysates; immunoprecipitation with an anti-NL2 antibody; western blot

binding [1]: binds
B1: gephyrin, endogenous in mouse brain (protein, UniProt Q8BUV3 1-769)
chain: MATEGMILTNHDHQIRVGVLTVSDSCFRNLAEDRSGINLKDLVQDPSLLGGTISAYKIVPDEIEEIKETLIDWCDEKELNLILTTGGTGFAPRDVTPEATKEVIEREAPGMALAMLMGSLNVTPLGMLSRPVCGIRGKTLIINLPGSKKGSQECFQFILPALPHAIDLLRDAIVKVKEVHDELEDLPSPPPPLSPPPTTSPHKQTEDKGVQCEEEEEEKKDSGVASTEDSSSSHITAAALAAKIPDSIISRGVQVLPRDTASLSTTPSESPRAQATSRLSTASCPTPKQIRRPDESKGVASRVGSLKARLPSCSSTYSVSEVQSRCSSKENILRASHSAVDITKVARRHRMSPFPLTSMDKAFITVLEMTPVLGTEIINYRDGMGRVLAQDVYAKDNLPPFPASVKDGYAVRAADGPGDRFIIGESQAGEQPTQTVMPGQVMRVTTGAPIPCGADAVVQVEDTELIRESDDGTEELEVRILVQARPGQDIRPIGHDIKRGECVLAKGTHMGPSEIGLLATVGVTEVEVNKFPVVAVMSTGNELLNPEDDLLPGKIRDSNRSTLLATIQEHGYPTINLGIVGDNPDDLLNALNEGISRADVIITSGGVSMGEKDYLKQVLDIDLHAQIHFGRVFMKPGLPTTFATLDIDGVRKIIFALPGNPVSAVVTCNLFVVPALRKMQGILDPRPTIIKARLSCDVKLDPRPEYHRCILTWHHQEPLPWAQSTGNQMSSRLMSMRSANGLLMLPPKTEQYVELHKGEVVDVMVIGRL

binding [2]: binds | binding [3]: binds | binding [4]: binds
B2: Mouse turbo-GFP-tagged LHFPL4 (protein, UniProt Q5U4E0 1-247)
chain: T1 sequence

binding [5]: binds
B3: LHFPL4 (Lipoma HMGIC Fusion Partner-Like 4), endogenous in mouse brain (protein, UniProt Q5U4E0 1-247)
chain: T1 sequence
